Laboratory results: PubChem BioAssay AID1259308 (NCATS, 2017)
Here is an unselected part of about 59,000 reagents. About 1,510 of them (2.6%) were called active. 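Calls use total luciferase alone and ignore viability, so some active siRNAs may act by altering cell number.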 Not all columns of the deposit are shown. No sequences are given here.

Purpose: 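Genes whose loss raises luciferase production in HEK293 cells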 (primary screen)
System: human HEK293 embryonic kidney cells stably expressing firefly luciferase (HEK-CMV-Luc2-Hygro)
Knock-down reagent: single siRNA against human genes, 0.8 pmol siRNA per well
Time to read-out: 72 h
Read-out: 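Reporter luminescence and viable-cell signal on separate replicate plates, given as percent of non-targeting control and median/MAD z-scores, plus per-cell luciferase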
Scale: total luciferase, z-score: higher = more reporter protein produced
Rule for the call: 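An siRNA counts as active if its total luciferase robust z-score exceeds 3; genes with two or more such siRNAs out of three were retested with fresh siRNAs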
Meaning of the calls: active = raised luciferase; inactive = no rise

C12orf76 (GeneID 400073) [SID160733304] | total luciferase, z-score = 2.02; call = inactive
C12orf76 (GeneID 400073) [SID160766925] | total luciferase, z-score = 0.292; call = inactive
C12orf76 (GeneID 400073) [SID160766926] | total luciferase, z-score = 0.0836; call = inactive
OTOP3 (GeneID 347741) [SID160765025] | total luciferase, z-score = 0.337; call = inactive
OTOP3 (GeneID 347741) [SID160765026] | total luciferase, z-score = -0.751; call = inactive
OTOP3 (GeneID 347741) [SID160765027] | total luciferase, z-score = 1.07; call = inactive
SLC7A6OS (GeneID 84138) [SID160735077] | total luciferase, z-score = -1.62; call = inactive
SLC7A6OS (GeneID 84138) [SID160751777] | total luciferase, z-score = -1.04; call = inactive
SLC7A6OS (GeneID 84138) [SID160751778] | total luciferase, z-score = -0.893; call = inactive
DDIT4 (GeneID 54541) [SID160741887] | total luciferase, z-score = 0.215; call = inactive
DDIT4 (GeneID 54541) [SID160741888] | total luciferase, z-score = -0.218; call = inactive
DDIT4 (GeneID 54541) [SID160741889] | total luciferase, z-score = 2.68; call = inactive
KRTAP1-1 (GeneID 81851) [SID160735014] | total luciferase, z-score = -0.0469; call = inactive
KRTAP1-1 (GeneID 81851) [SID160751025] | total luciferase, z-score = 1.17; call = inactive
KRTAP1-1 (GeneID 81851) [SID160751026] | total luciferase, z-score = -0.934; call = inactive
FIG4 (GeneID 9896) [SID160723369] | total luciferase, z-score = -1.95; call = inactive
FIG4 (GeneID 9896) [SID160723370] | total luciferase, z-score = -1.05; call = inactive
FIG4 (GeneID 9896) [SID160723371] | total luciferase, z-score = -0.113; call = inactive
MIX23P3 (GeneID 732448) [SID160734895] | total luciferase, z-score = 1.71; call = inactive
MIX23P3 (GeneID 732448) [SID160774509] | total luciferase, z-score = -0.185; call = inactive
MIX23P3 (GeneID 732448) [SID160774510] | total luciferase, z-score = -0.905; call = inactive
NDUFB5 (GeneID 4711) [SID160777871] | total luciferase, z-score = 0.0187; call = inactive
NDUFB5 (GeneID 4711) [SID160777872] | total luciferase, z-score = 0.567; call = inactive
NDUFB5 (GeneID 4711) [SID160777873] | total luciferase, z-score = 0.591; call = inactive
IHH (GeneID 3549) [SID160775663] | total luciferase, z-score = -0.178; call = inactive
IHH (GeneID 3549) [SID160775664] | total luciferase, z-score = -0.207; call = inactive
IHH (GeneID 3549) [SID160775665] | total luciferase, z-score = 2.78; call = inactive
KDM4C (GeneID 23081) [SID160732739] | total luciferase, z-score = 1.32; call = inactive
KDM4C (GeneID 23081) [SID160735402] | total luciferase, z-score = 0.781; call = inactive
KDM4C (GeneID 23081) [SID160735404] | total luciferase, z-score = -0.299; call = inactive
SFTPB (GeneID 6439) [SID160716632] | total luciferase, z-score = 1.71; call = inactive
SFTPB (GeneID 6439) [SID160716633] | total luciferase, z-score = 0.32; call = inactive
SFTPB (GeneID 6439) [SID160733855] | total luciferase, z-score = 1.05; call = inactive
